doi:10.1101/2020.07.07.180133

Protein sequences, listed by entry. Tags and fused reporters are not part of them.
UniProt P10630: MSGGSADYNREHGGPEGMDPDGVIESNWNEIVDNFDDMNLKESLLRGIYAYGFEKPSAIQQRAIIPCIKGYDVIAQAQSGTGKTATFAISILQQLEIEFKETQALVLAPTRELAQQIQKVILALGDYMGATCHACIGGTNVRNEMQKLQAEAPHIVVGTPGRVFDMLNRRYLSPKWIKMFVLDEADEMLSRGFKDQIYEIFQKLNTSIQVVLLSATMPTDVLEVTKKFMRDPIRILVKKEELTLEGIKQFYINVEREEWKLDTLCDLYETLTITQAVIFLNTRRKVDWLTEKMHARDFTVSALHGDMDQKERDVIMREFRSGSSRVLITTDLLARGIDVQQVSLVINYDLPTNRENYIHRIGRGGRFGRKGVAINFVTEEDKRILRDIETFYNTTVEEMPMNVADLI

B1: Ogt (protein, UniProt Q8CGY8 1-1046)
chain: MASSVGNVADSTEPTKRMLSFQGLAELAHREYQAGDFEAAERHCMQLWRQEPDNTGVLLLLSSIHFQCRRLDRSAHFSTLAIKQNPLLAEAYSNLGNVYKERGQLQEAIEHYRHALRLKPDFIDGYINLAAALVAAGDMEGAVQAYVSALQYNPDLYCVRSDLGNLLKALGRLEEAKACYLKAIETQPNFAVAWSNLGCVFNAQGEIWLAIHHFEKAVTLDPNFLDAYINLGNVLKEARIFDRAVAAYLRALSLSPNHAVVHGNLACVYYEQGLIDLAIDTYRRAIELQPHFPDAYCNLANALKEKGSVAEAEDCYNTALRLCPTHADSLNNLANIKREQGNIEEAVRLYRKALEVFPEFAAAHSNLASVLQQQGKLQEALMHYKEAIRISPTFADAYSNMGNTLKEMQDVQGALQCYTRAIQINPAFADAHSNLASIHKDSGNIPEAIASYRTALKLKPDFPDAYCNLAHCLQIVCDWTDYDERMKKLVSIVAEQLEKNRLPSVHPHHSMLYPLSHGFRKAIAERHGNLCLDKINVLHKPPYEHPKDLKLSDGRLRVGYVSSDFGNHPTSHLMQSIPGMHNPDKFEVFCYALSPDDGTNFRVKVMAEANHFIDLSQIPCNGKAADRIHQDGIHILVNMNGYTKGARNELFALRPAPIQAMWLGYPGTSGALFMDYIITDQETSPAEVAEQYSEKLAYMPHTFFIGDHANMFPHLKKKAVIDFKSNGHIYDNRIVLNGIDLKAFLDSLPDVKIVKMKCPDGGDNPDSSNTALNMPVIPMNTIAEAVIEMINRGQIQITINGFSISNGLATTQINNKAATGEEVPRTIIVTTRSQYGLPEDAIVYCNFNQLYKIDPSTLQMWANILKRVPNSVLWLLRFPAVGEPNIQQYAQNMGLPQNRIIFSPVAPKEEHVRRGQLADVCLDTPLCNGHTTGMDVLWAGTPMVTMPGETLASRVAASQLTCLGCLELIAKSRQEYEDIAVKLGTDLEYLKKIRGKVWKQRISSPLFNTKQYTMELERLYLQMWEHYAAGNKPDHMIKPVEVTESA
B2: Wdr59 (protein, UniProt Q8C0M0 1-992)
chain: MAARWSSENVVVEFRDSQATAMSVDCLGQHAVLSGRRFLYIVNLDAPFEGHRKISRQSKWDIGAVQWNPHDSFAHYFAASSNQRVDLYKWKDGSGEVGTTLQGHTRVISDLDWAVFEPDLLVTSSVDTYIYIWDIKDTRKPTVALSAVAGASQVKWNKKNANYLATSHDGDVRIWDKRKPSTAVEYLAAHLSKIHGLDWHPDSEHIFATSSQDNSVKFWDYRQPRKYLNILPCQVPVWKARYTPFSNGLVTVMVPQLRRENSLLLWNASDLNAPVHTFVGHDDVVLEFQWRRQKEGSKDYQLVTWSRDQTLRMWRVDYQMQRLCANDILDGVDEFIESISLLPEPEKTPHPQDIDHQPSLSHGEEDAIKEDPPSSLLEEKRSDQLGLPQTLQQEFSLINVQIRNVNVEMDAADRSCTVSVHCSNHRVKMLVTFPAQYPNNAAPSFQFINPTTITSAVKAKLLKILKDTSLQKVKRNQSCLEPCLRQLVSCLESFVNQEDSASSNPFALQNSVTPPLPTFARVTTAYGSYQDANIPFPRTSGARFCGAGYLVYFTRPMTMHRAVSPTEPTPRSLSALSAYHTGLIAPMKIRTEAPGNLRLYSGSPTRSEKEQVSISSFYYKERKSRRWKSKREGSDSGNRPIKAAGKVIIQDVSCLLPVHKSLGELYILNVNDTQETCQKNATSAMLVGRKDLVQVWSLATVATDLCLGPKSDPDLETPWARHPFGRQLLESLWGDRESTRVCGPPLSGARLAHYCQLRDVQTLAMLCSVFEAQSRPQGLPNPFGPFPNRSSNLVVSHSRYPSFTSSGSCSSMSDPGFNTGGWNIAGRETEHISSPWGESSPEELRFGSLTYSDPRERERDQHDKNKRLLDPANTQQFDDFKKCYGEILYRWGLREKRAEVLKFVSCPPDPHKGIEFGVYCSHCRSEVRGTQCAICKGFTFQCAICHVAVRGSSNFCLTCGHGGHTSHMMEWFRTQEVCPTGCGCHCLLESTF
B3: Mios (protein, UniProt Q8VE19 1-875)
chain: MSGTKPDILWAPHQVDRFVVCDSELSLYHVESAVNSELKAGSLRLSEDSAATLLSINSDTPYMKCVAWYLNYDPECLLAVGQANGRVVLTSLGQDHNSKFKDLIGKEFVPKHARQCNTLAWNPLDSNWLAAGLDKHRADFSVLIWDICSKYTPDIVPMEKVRLSAGEAETTLLVTKPLYELGQNDASLSLCWLPRDQKLLLAGMHRNLAIFDLRNTSQKMFVNTKAVQGVTVDPYFHDRVASFYEGQVAIWDLRKFEKPVLTLTEQPKPLTKVAWCPTRTGLLATLTRDSNIIRLYDMQHTPTPIGDETEPTIIERSVQPCDNYIASFAWHPTSQNRMIVVTPNRTMSDFTVFERISLAWSPITSLMWACGRHLYECAEEESDNSLEKDIATKMRLRALSRYGLDTEQVWRNHILAGNEDPQLKSLWYTLHFMKQYTEDNDQKSPGNKGSLVYAGIKSIVKSSLGMVESSRHNWSGLDKQTDIQNLNEERILALQLCGWIKKGTDVDVGPFLNSLVQEGEWERAAAVALFNLDIRRAIQILNEGASSEKGDLNLNVVAMALSGYTDEKNSLWREMCSTLRLQLNNPYLCVMFAFLTSEAGAYDGVLYENKVAVRDRVAFACKFLGDAQLNKYIEKLTNEMKEAGNLEGILLTGLTKDGVDLMESYVDRTGDVQTASYCMLQGSPLDVLKDERVQYWIENYRNLLDAWRFWHKRAEFDIHRSKLDPSSKPLAQVFVSCNFCGKSISYSCSSVPHQGRGFSQYGVSGSPTKSKVTSCPGCRKPLPRCALCLINMGTPVSSCPGGSKSDEKVDLSKDKKLAQFNNWFTWCHNCRHGGHAGHMLSWFRDHAECPVSACTCKCMQLDTTGNLVPAETVQP
B4: Smg7 (protein, UniProt Q5RJH6 1-1138)
chain: MSLQSAQYLRQAEVLKAEMTDSKLGPAEVWTSRQALQDLYQKMLVTDLEYALDKKVEQDLWNHAFKNQITTLQGQAKNRANPNRSEVQANLSLFLEAASGFYTQLLQELCTVFNVDLPCRVKSSQLGIISNKQTHSSTIVKPQSSSCSYICQHCLVHLGDIARYRNQTSQAESYYRHAAQLVPSNGQPYNQLAILASSKGDHLTTIFYYCRSIAVKFPFPAASTNLQKALSKALESRDELKTKWGVSDFIKAFIKFHGHVYLSKSLEKLSPLREKLEEQFKRLLFQKAFNSQQLVHVTVINLFQLHHLRDFSNETEQHSYSQDEQLCWTQLLALFMSFLGILCKCPLQNDSQESNNAYPLPAVKVSMDWLRLRPRVFQEAVVDERQYIWPWLISLLNSFHPREDDLSNTNATPLPEEFELQGFLALRPSFRNLDFSKGHQGITGDKEGQQRRIRQQRLISIGKWIADNQPRLIQCENEVGKLLFITEIPELILEDPSEAKENLILQETSVVESLATDGSPGLKSVLSTGRNPSNSCDSGEKPVVTFKENIKPREVNQGRSFPPKEVKSQTELRKTPVSEARKTPVTQTPSQTSNSQFIPIHHPGAFPPLPSRPGFPPPTYVIPPPVAFSMGSGYTFPAGVSVPGTFLQSTAHSPAGNQVQAGKQSHIPYSQQRPSGPGPMNQGPQQSQPPSQPPLTSLPAQPTAQSTSQLQVQALAQQQQSPTKVIPALGKSPPHHSGFQQYQQADASKQLWNPPQVQSPLGKIMPVKQSYYLQTQDPIKLFEPSLQPPVIQQQPLEKKMKPFPMEPYNHNPSEVKVPEFYWDSSYSMADNRAVMAQQPNMDRRSKRSPGVFRPEQDPVPRMPFEDPKSSPLLPPDLLKSLAALEEEEELIFSNPPDLYPALLGPLASLPGRSLFKSLLEKPSELMSHSSSFLSLTGFSVNQERYPNSSMFNEVYGKNLTTSSKAELNPSVASQETSLYSLFEGTPWSPSLPASSDHSTPASQSPHSSNPSSLPSSPPTHNHNSAPFSNFGPIGTPDNRDRRPADRWKTDKPAMGGFGVDYLSATSSSESSWHQASTPSGTWTGHGPSMEDSSAVLMESLKSIWSSSMMHPGPSALEQLLMQQKQKQQRGQGAMNPPH
B5: Eif4enif1 (protein, UniProt Q9EST3 1-983)
chain: MEKSVAETENGDAFLELKKLPTSKSPHRYTKEELLDIKERPYSKQRPSCLSEKYDSDGVWDPEKWHASLYPASGRSSPVESLKKESESDRPSLVRRIADPRERVKEDDLDVVLSPQRRSFGGGCHVTAAVSSRRSGSPLEKDSDGLRLLGGRRIGSGRIISARAFEKDHRLSDKDLRDLRDRDRERDYKDKRFRREFGDSKRVFGERRRNDSYTEEEPEWFSAGPTSQSETIELTGFDDKILEEDHKGRKRTRRRTASVKEGIVECNGGVAEEDEVEVILAQEPSADQEVPRDVILPEQSPGEFDFNEFFNLDKVPCLASMIEDVLGEGSVSASRFSRWFSNPSRSGSRSSSLGSTPHEELERLAGLEQAVLSPGQNSGNYFAPIPSEDHAENKVDILEMLQKAKVDLKPLLSSLSANKEKLKESSHSGVVLSVEEVEAGLKGLKVDQQMKNSTPFMAEHLEETLSAASSNRQLKKDGDMTAFNKLVNTMKASGTLPTQPKVSRNVESHLLAPAEIPGQPVSKNILQELLGQPVQRPASSNLLSGLMGSLEATASLLSQRAPSPPMSQVFRTQAASADYLHPRIPSPIGFPSGPQQLLGDPFQGMRKPMSPVSAQMSQLELQQAALEGLALPHDLAVQTAPFYQPGFSKPQVDRTRDGLRNRQQRMSKSPAPMHGGNSSSPAPAASITSMLSPSFTPTSVIRKMYESREKTKEEMAPGMVVPGDGKEDTQKTSEENLLSSNPIPNTDQDSSTTNPKLSTLQRSSCSTPLSQTSRYTKEQDYRPKTAGRKTPTLASPVPGTPFLRPTHQVPLVPHVPIVRPAHQLHPGLVQRLIAQGVHPQHLPSLLQAGVLPPGIDMAPLQGLSGPLLGQPLYPLVSAASHPLLNPRPGTPLHLAVMQQQLQRSVLHPPGSSSQAAAISVQTPQNVPSRSGMPHMHSQLEHRTSQRSSSPVGLAKWFGSDVLQQPLPSMPTKVISVDELEYRQ

The binders below were run against flag-tagged Eif4a2^PTC (mouse) (assay: affinity purification with mass spectrometry).

Binder	binding
B1	binds
B2	binds
B3	binds
B4	binds
B5	binds

What follows are binders tested against flag-tagged Eif4a2^FL (mouse) (UniProt P10630) (assay: affinity purification with mass spectrometry).

Binder	binding
B1	binds
B2	binds
B3	no binding
B4	binds
B5	binds

No constants are given. Whether binding was seen depends on the method and setting. Binding seen in cells or lysates may run through a third protein. Here binding means that the protein was enriched with, or labelled near, the bait; the list need not be complete. For some of these results: A no says only that the protein was not detected with the bait.
